Experimental findings from paper PMC12670160, “A drug-repurposing screen of FDA- and EMA-approved drugs identifies two NF-κB inhibitors active against eumycetoma” (Journal of Antimicrobial Chemotherapy, 2025) are described below.

The structures appear in SMILES notation. Where a name gives a salt, the structure may show the parent alone. The whole screen tested about 5,300 compounds, of which about 130 (2.5%) showed an effect of 50% or more. The list shows a part of the results.

This experiment has as its system M. mycetomatis strain mm55. To be noted: primary screen, metabolic activity vs growth control; 96 h, 2 µM; inhibitor.
On to `C[C@H]1O[C@@H](n2cc(F)c(=O)[nH]c2=O)[C@H](O)[C@@H]1O` [ONC0000605, doxifluridine], for which the “% viability” value is given as 82.17%. As for `Cc1ccc(Nc2ncc3c(n2)N(C)C(=O)N(c2cc(NC(=O)c4cccc(C(F)(F)F)c4)ccc2C)C3)cn1` [ONC0003029, gnf7], the “% viability” value worked out at 82.72%. As for `C[N+]1([O-])C2CCC1CC(OC(=O)C(CO)c1ccccc1)C2` (stereo not shown) [ONC0004212, atropine oxide], the figure is 82.92%; as for `CCN1CCCC(OC(=O)C(c2ccccc2)c2ccccc2)C1` (stereo not shown) [ONC0004204, piperidolate hydrochloride], 59.78%; as for `Nc1ccc(C(=O)O)cc1` [ONC0000284, potassium paminobenzoate], 77.48%.

Turning to `O=C(O)C1=CO[C@@H](O[C@@H]2O[C@H](CO)[C@@H](O)[C@H](O)[C@H]2O)[C@@H]2C(CO)=CC[C@H]12` [ONC0004954, geniposidic acid], the “% viability” value amounted to 64.57%. As for `CCCCCNC(=N)N/N=C/c1c[nH]c2ccc(OC)cc12` [ONC0003948, tegaserod maleate], the figure is 68.4%; as for `NS(=O)(=O)c1cc(Cl)c(Cl)c(S(N)(=O)=O)c1` [ONC0005275, dichlorphenamide diclofenamide], 137.6%; as for `CS(=O)(=O)c1ccc(-c2cnc(N)c(C(=O)Nc3ccccc3)n2)cc1` [ONC0004547, ve821], 76.73%. In the case of `COc1c(C)c2c(c(O)c1C/C=C(\C)CCC(=O)O)C(=O)OC2` [ONC0000625, mycophenolic acid], the “% viability” value amounted to 92.92%. As for `O=C(Oc1ccccc1C(=O)O)c1ccccc1O` [ONC0003314, salsalate], the figure is 76.16%; as for `O=C(O)c1ccc(S(=O)(=O)N(Cl)Cl)cc1` [ONC0000597, halazone], 77.44%; as for `CC[C@@]1(C2O[C@@H](C3O[C@@](O)(CO)[C@H](C)C[C@@H]3C)C[C@@H]2C)CC[C@H]([C@]2(C)CC[C@]3(C[C@H](O)[C@@H](C)[C@@H]([C@@H](C)[C@@H](OC)[C@H](C)C(=O)O)O3)O2)O1` (stereo partly shown) [ONC0004087, monensin sodium], 133.1%. As for `O=[N+]([O-])c1cn2c(n1)OC[C@@H](OCc1ccc(-c3ccc(OC(F)(F)F)cc3)nc1)C2` [ONC0001032, tba354], the figure is 76.09%. On to `O=C(NCCN1CCOCC1)c1ccc(Cl)cc1` [ONC0004576, moclobemide ro 111163], for which the “% viability” value stood at 83.02%. Regarding `O=C(c1ccc(CN2CCOCC2)cc1)N1CCN(C2CC2)CC1` [ONC0001030, bavisant dihydrochloride hydrate], the “% viability” value is 91.92%.
